Measured values taken from PubChem BioAssay AID588590 (National Center for Advancing Translational Sciences (NCATS), 2011).
Several values for one entry are separate records, joined by “and”; a condition that tells them apart may be missing. Equal values may be shown once. Hit rate of the full screen: of about 390,000 compounds, about 4,000 (1%) were called active. The inconclusive results got no clear call from the source; some entries with a clear call stand among them for comparison. Calls follow the shape of the dose curve; as a rule, active = well fitted inhibition curve with a large enough effect; inconclusive = small, poorly fitted or top-dose-only effect, or another doubt; inactive = no such curve, though single readings can be large or run the other way. A potency beside an inconclusive call is a rough fit, not a confirmed value.

Sequences of proteins named here, by UniProt entry; tags and fusion partners are left off. A change or cut given only in a name is not applied to a line headed by its entry.
UniProt Q9UNA4: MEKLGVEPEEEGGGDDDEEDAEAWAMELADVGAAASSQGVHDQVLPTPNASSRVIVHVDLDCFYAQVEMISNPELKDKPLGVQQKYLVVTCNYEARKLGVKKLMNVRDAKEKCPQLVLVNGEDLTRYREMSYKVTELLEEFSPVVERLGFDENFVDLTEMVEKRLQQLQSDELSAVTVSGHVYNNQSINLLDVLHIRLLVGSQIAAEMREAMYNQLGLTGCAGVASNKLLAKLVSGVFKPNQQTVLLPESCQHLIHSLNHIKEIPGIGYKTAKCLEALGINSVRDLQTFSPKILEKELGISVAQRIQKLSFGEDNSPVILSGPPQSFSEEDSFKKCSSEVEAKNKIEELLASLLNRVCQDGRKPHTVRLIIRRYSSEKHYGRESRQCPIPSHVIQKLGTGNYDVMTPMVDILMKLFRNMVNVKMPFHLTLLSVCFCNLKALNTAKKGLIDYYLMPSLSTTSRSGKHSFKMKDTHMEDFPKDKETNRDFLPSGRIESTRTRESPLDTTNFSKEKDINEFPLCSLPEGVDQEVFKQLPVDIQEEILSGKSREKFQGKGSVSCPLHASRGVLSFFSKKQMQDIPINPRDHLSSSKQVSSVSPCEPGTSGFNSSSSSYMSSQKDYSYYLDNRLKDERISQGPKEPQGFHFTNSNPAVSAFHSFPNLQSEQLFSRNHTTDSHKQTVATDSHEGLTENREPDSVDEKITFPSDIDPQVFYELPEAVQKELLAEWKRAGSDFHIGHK

target: DNA polymerase iota (Homo sapiens) (UniProt Q9UNA4); assay: qHTS for Inhibitors of Polymerase Iota; conditions: Pol iota fluorescent replication assay, 10 min; series mostly up to 115 µM
Procedure, shortened: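 Pol iota at 10 nM preincubated 15 min with compounds at room temperature; reaction started with fluorescent substrate, 50 nM final. Fluorescence read kinetically at 0 and 10 min; buffer-only wells as negative control.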
Potency is read from the fitted curve at half-maximal effect.

| SMILES | Potency |
| --- | --- |
| Cc1ccsc1/C=C1\C(=O)NC(=S)N(C)C1=O | inconclusive: 15.8 µM [inhibitor, partial curve, poor fit] |
| CCOP(=S)(OCC)Oc1cc(C)oc(=O)c1 | inconclusive: 17.8 µM [inhibitor, full curve] |
| O=C1C=CC2C3C(=O)N(c4ccccc4)C(=O)C3C1N2Cc1ccccc1 (configuration not stated) | inconclusive: 14.1 µM [inhibitor, partial curve, poor fit] |
| N[C@@H](Cc1cc(I)c(O)c(I)c1)C(=O)O | active: 28.2 µM and active: 31.6 µM |
| CCOc1ccc2nc(N=Nc3c(O)[nH]c(=O)[nH]c3=O)sc2c1 | inactive |
| Cc1c(N=Cc2c(O)n(C3CCCCC3)c(=O)[nH]c2=O)c(=O)n(-c2ccccc2)n1C | inconclusive: 31.6 µM [inhibitor, partial curve, poor fit] |
| CN(C)[C@@H]1C(=O)C(C(N)=O)=C(O)[C@@]2(O)C(=O)C3=C(O)c4c(O)cccc4[C@@](C)(O)C3C[C@@H]12 (some centres not stated) | inconclusive: 56.2 µM [inhibitor, partial curve, poor fit] |
| COc1ccc(N2C(=O)/C(=C/C=C/c3ccccc3[N+](=O)[O-])C(=O)NC2=S)cc1 | active: 15.8 µM |
| COCCCn1c(N)c(C(=O)NCCC(C)C)c2nc3ccccc3nc21 | active: 4.47 µM |
| O=C(Cc1c[nH]c2ccccc12)NNCc1ccc(N(CCCl)CCCl)cc1 | inconclusive: 56.2 µM [inhibitor, partial curve, poor fit] |
| COc1cc(/C=C/c2nc3ccccc3c(=O)n2-c2ccc(O)cc2)ccc1O | inconclusive: 39.8 µM [inhibitor, single point] |
| CCn1c(O)c(/C=N/NC(=O)c2ccccc2)c(=O)[nH]c1=S | inactive |
| C[C@H]1C=CC(=O)O[C@H]1c1ccccc1 | inconclusive: 31.6 µM [inhibitor, partial curve, poor fit] |
| Cc1ccc(N2C(=O)NC(=O)/C(=C\c3cc(C)n(-c4ccc(C(=O)O)cc4)c3C)C2=O)cc1 | active: 25.1 µM |
| COc1ccc(CCn2c(NN=C3CCCC3)nc3c2c(=O)[nH]c(=O)n3C)cc1 | inconclusive: 25.1 µM [inhibitor, single point] |
| O=C(Nc1ccc(Br)cc1C(=O)O)c1ccc2c(c1)C(=O)N(Cc1ccccc1)C2=O | inactive |
| O=C(CSc1nnc(NC(=O)c2ccccc2[N+](=O)[O-])s1)NCc1ccco1 | inconclusive: 50.1 µM [inhibitor, partial curve] |
| COc1ccc(/C=C2/C(=O)N(c3ccccc3)N=C2C)cc1 | inconclusive: 0.708 µM [inhibitor, full curve, poor fit] |
| C=CCN1C(=O)/C(=C/c2ccc3c(c2)CCCN3CCC)C(=O)NC1=S | inconclusive: 15.8 µM [inhibitor, partial curve, poor fit] |

Single values from the list.
For Potency, COc1cc(/C=C/c2nc3ccccc3c(=O)n2-c2ccc(O)cc2)ccc1O is listed with inconclusive: 39.8 µM [inhibitor, single point]
For Potency, Cc1ccsc1/C=C1\C(=O)NC(=S)N(C)C1=O is listed with inconclusive: 15.8 µM [inhibitor, partial curve, poor fit]

Following part:

| SMILES | Potency |
| --- | --- |
| CSc1ncc(/C=C2/C(=O)NC(=O)N(c3ccc(Cl)cc3)C2=O)cn1 | inconclusive: 0.708 µM [inhibitor, full curve, poor fit] |
| CN1C(=O)C(Cc2ccsc2)C(=O)N(C)C1=O | inconclusive: 25.1 µM [inhibitor, partial curve, poor fit] |
| Cc1cc(C)c(N)cc1C | inconclusive: 79.4 µM [inhibitor, single point] |
| C[C@@H]1O[C@@H](O[C@@H]2C=C3CC[C@@H]4[C@@H](CC[C@]5(C)[C@H](c6ccc(=O)oc6)CC[C@@]45O)[C@@]3(C)CC2)[C@H](O)[C@H](O)[C@H]1O | inactive |
| Cc1cc(C)cc(N2C(=O)NC(=O)/C(=C/c3cccn3-c3ccc(Cl)cc3)C2=O)c1 | inconclusive: 15.8 µM [inhibitor, partial curve, poor fit] |
| O=C(Cn1c(=O)oc2cc(S(=O)(=O)N3CCCC3)ccc21)N1CCN(c2ccccc2F)CC1 | inconclusive: 56.2 µM [inhibitor, partial curve, poor fit] |
| CN(C)CCSC1c2ccccc2CSc2ccccc21 (configuration not stated) | inconclusive: 44.7 µM [inhibitor, partial curve, poor fit] |
| CN1CCC(OC(=O)c2cccc(F)c2)CC1 | inconclusive: 89.1 µM [inhibitor, partial curve, poor fit] |
| CCOc1ccc(-c2cc(C)n3nc(C(=O)Nc4ccc(C)c(C)c4)cc3n2)cc1 | inconclusive: 70.8 µM [inhibitor, partial curve, poor fit] |
| N#CC(C#N)=Cc1ccc(O)c(O)c1 | inconclusive: 79.4 µM [inhibitor, partial curve] and inconclusive: 14.1 µM [inhibitor, partial curve] and inconclusive: 44.7 µM [inhibitor, single point] |
| CC(C)[C@H]1C(=O)N2CCC[C@H]2[C@]2(O)O[C@](NC(=O)[C@@H]3C=C4c5cccc6[nH]cc(c56)C[C@H]4N(C)C3)(C(C)C)C(=O)N12 | active: 22.4 µM |
| O=C1NC(=O)C(=CN2CCc3ccccc32)C(=O)N1 | inconclusive: 25.1 µM [inhibitor, partial curve] |
| CNc1ccc2nc3ccccc3[n+](C)c2c1 | active: 35.5 µM |
| CCOc1cc(-c2c(C#N)c(=O)[nH]c3c2c(C)nn3-c2ccc(F)cc2)ccc1O | inconclusive: 25.1 µM [inhibitor, full curve, poor fit] |
| CCOC(=O)N1CCN(/[N+]([O-])=N/Oc2ccc([N+](=O)[O-])cc2[N+](=O)[O-])CC1C (configuration not stated) | inconclusive: 11.2 µM [inhibitor, full curve, poor fit] |
| Cc1ccc(Cn2c(SCc3ccc(C(=O)NC4CCCC4)cc3)nc3ccncc32)cc1 | inconclusive: 89.1 µM [inhibitor, single point] |
| Cc1cc(C=C2C(=O)NC(=S)NC2=O)c(C)n1C1CCCC1 | inconclusive: 15.8 µM [inhibitor, full curve, poor fit] |
| CN1CCN(c2csc3ccc(F)cc3c2=O)CC1 | inconclusive: 15.8 µM [inhibitor, full curve, poor fit] |
